Experimental data from PMC7819943, “Rice protein-binding microarrays: a tool to detect cis-acting elements near promoter regions in rice”.
The list shows a part of the results.

The chains behind the UniProt entries cited, without tags or fusion partners.
UniProt Q0JBA9, entry or part of it: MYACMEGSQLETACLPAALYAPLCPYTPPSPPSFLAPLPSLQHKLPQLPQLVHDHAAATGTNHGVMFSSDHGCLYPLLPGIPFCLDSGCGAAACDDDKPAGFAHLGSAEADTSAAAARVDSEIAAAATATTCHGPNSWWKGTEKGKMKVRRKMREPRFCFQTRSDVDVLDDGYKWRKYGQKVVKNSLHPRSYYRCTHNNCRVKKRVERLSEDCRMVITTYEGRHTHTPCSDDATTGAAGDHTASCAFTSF

These sequences were tested against OsWRKY34 (Oryza sativa, UniProt Q0JBA9 1-250) (assay: protein-binding microarray (RPBM); PBS, 2% BSA, 51.3 ng/ul salmon testes DNA, 50 uM zinc acetate, 200 nM TF, 25 C, 1 h; high values mean tight binding). Conditions: protein: recombinant; tags: N-terminal polyhistidine and DsRed monomer fusion (pET32a); label: CyDye5-dUTP incorporated in the synthesized complementary strand; 3' TTTTT single-stranded linker to array surface; dsDNA, one strand shown.
Method in brief: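 Using Ni–NTA, transcription factors fused N-terminally to polyhistidine and DsRed were purified after expression in E. coli BL21-CodonPlus. These were incubated at 200 nM with a blocked, double-stranded custom Agilent array for 1 h at 25 °C in a buffer containing 50 µM zinc acetate, and the array was washed. The binding signal is per-feature fluorescence intensity (arbitrary units) on an Axon 4000B scanner.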
For “GGCTCCTCATCTCACACTCCGTACACCCAGTCCATACACCCGGAGTCACCTAGTGCAG”, the binding signal was 8860 fluorescence intensity (a.u.).
For “CATTTTTGTCTTTTTTGTTAGTTTACCGGTAGTTTTCGTGCGGAGTCACCTAGTGCAG”, the binding signal was 8650 fluorescence intensity (a.u.).
With “ATATGATTTTGTACAACAACTTTCCCATATATCTTTTTTACGGAGTCACCTAGTGCAG” the binding signal was 10200 fluorescence intensity (a.u.).
In the case of “GTGAGGTCTGTTTTCTTCGGGCGTACGGTTTCCTTTTTTTCGGAGTCACCTAGTGCAG”, the binding signal is reported as 14100 fluorescence intensity (a.u.).
In the case of “CGGTATGGTTGATCCCTTGTATGTTTGTCCAGGCATCCGCCGGAGTCACCTAGTGCAG”, the binding signal is reported as 8760 fluorescence intensity (a.u.).
With “CATTGTTCGTGCCCTTACTTTATCATCAATAAATAACACTCGGAGTCACCTAGTGCAG” the binding signal was 8690 fluorescence intensity (a.u.).
For “CATTTTCCTGGTATATATTCCGATCCGTTCCCTGGTTTCTCGGAGTCACCTAGTGCAG”, the binding signal was 11500 fluorescence intensity (a.u.).
For “TCGCTCTCTCTCTCTCTCTCTCTGCCCGTACACTCGGCGCCGGAGTCACCTAGTGCAG”, the binding signal was 8090 fluorescence intensity (a.u.).
“TCAGGCACAAAAGTTTCTTTCCCGGGTGGGGTCCACAAGTCGGAGTCACCTAGTGCAG” was tested, and the binding signal was 8250 fluorescence intensity (a.u.).
In the case of “CCAGTTTCAGTTTAAGCTCTTAAACCCTCGCCGGGAGATTCGGAGTCACCTAGTGCAG”, the binding signal is reported as 8710 fluorescence intensity (a.u.).
In the case of “GGAATTTTGAGTTTTTACTTGCAACGTTTGACCACTTGTCCGGAGTCACCTAGTGCAG”, the binding signal is reported as 11600 fluorescence intensity (a.u.).
“CCGTGGTGGTACGCGCGCGCTGCGTACGTTTTTTTTTCTTCGGAGTCACCTAGTGCAG” was tested, and the binding signal was 9450 fluorescence intensity (a.u.).
“CCCCGACTGCCCCGACACCGGCTGCCTCGTCGACCTCAACCGGAGTCACCTAGTGCAG” was tested, and the binding signal was 9000 fluorescence intensity (a.u.).
For “GGTTGCAAAATTCTCCTCGGAAACCGCATCTCACCGTCCGCGGAGTCACCTAGTGCAG”, the binding signal was 9340 fluorescence intensity (a.u.).
With “CTTTTTCATCGTATCCAAACTTTTCTACACACACAAACTTCGGAGTCACCTAGTGCAG” the binding signal was 9170 fluorescence intensity (a.u.).
With “GCCGTCCATGAGCTCTGTTTTTTATCCTAACACCCCTCTGCGGAGTCACCTAGTGCAG” the binding signal was 8490 fluorescence intensity (a.u.).
With “GTATCCATATATGTTCATCTCGTTTTTGTGTCATAACCGTCGGAGTCACCTAGTGCAG” the binding signal was 9750 fluorescence intensity (a.u.).
In the case of “AAACCGGACCAATCTACGTCACTCACCTACTACCACAAGACGGAGTCACCTAGTGCAG”, the binding signal is reported as 8750 fluorescence intensity (a.u.).
“TCAACTAATCAATCACATGGTAATGACTTTTTCTTTTGTTCGGAGTCACCTAGTGCAG” was tested, and the binding signal was 9290 fluorescence intensity (a.u.).
For “GATGTGATGTAATTATTGTGTATTAAGGTTTTCGATACAACGGAGTCACCTAGTGCAG”, the binding signal was 8570 fluorescence intensity (a.u.).
In the case of “GCGTGGTATTGCCTGCTGCGTGTGCTTCACTTCCCCGAATCGGAGTCACCTAGTGCAG”, the binding signal is reported as 8070 fluorescence intensity (a.u.).
“GGCCTTCTTTTCTGATTCCGAATTTTGTATATTCGTTTGCCGGAGTCACCTAGTGCAG” was tested, and the binding signal was 8920 fluorescence intensity (a.u.).
In the case of “ATCGCCATCACCGCCCATCGCACCAAATCCTGTGTATCACCGGAGTCACCTAGTGCAG”, the binding signal is reported as 11400 fluorescence intensity (a.u.).
For “TTCTCCGTGTTAATATCACTTACGTCAAGGACCTATTTGTCGGAGTCACCTAGTGCAG”, the binding signal was 8750 fluorescence intensity (a.u.).
For “ACGGCTTTCCTACCCACCCACTCCACTCCACTCCACTCCCCGGAGTCACCTAGTGCAG”, the binding signal was 9010 fluorescence intensity (a.u.).
“TCGCTAGTAGCTGTTGCTGCCTCTCCACCGCGTCCCTCTCCGGAGTCACCTAGTGCAG” was tested, and the binding signal was 11000 fluorescence intensity (a.u.).
In the case of “TCGTGTCACTGTGGCTCACTATTCACCACCACTATTTTTTCGGAGTCACCTAGTGCAG”, the binding signal is reported as 8720 fluorescence intensity (a.u.).
“AGCACCAGTCCCTACTTTGTTTAGCAGCTTCTGGACATCACGGAGTCACCTAGTGCAG” was tested, and the binding signal was 11800 fluorescence intensity (a.u.).
In the case of “GTGGCCTTGTTCTATATGTTATTTTGCTCCTAGCGATGTACGGAGTCACCTAGTGCAG”, the binding signal is reported as 8430 fluorescence intensity (a.u.).
“CGCTCTCGCGCCGCCACCACCTCACCCCGCGCCCCGCCGCCGGAGTCACCTAGTGCAG” was tested, and the binding signal was 8150 fluorescence intensity (a.u.).
For “TGTTCGATTCCCTCCCTTGTATGCTTCTTTTTTTTTTCCCCGGAGTCACCTAGTGCAG”, the binding signal was 8710 fluorescence intensity (a.u.).
With “CTCCTCCGGCCTCTTCCCGTAGCGCGCCGGCCGCCGCCCCCGGAGTCACCTAGTGCAG” the binding signal was 8030 fluorescence intensity (a.u.).
With “CACCACGTTCGTTCCGGACGTCCACGCCTTACCAACCTTCCGGAGTCACCTAGTGCAG” the binding signal was 8090 fluorescence intensity (a.u.).
With “GCAAATCTCACCACTCGCCACCACCTCCACTTCGCCGCCGCGGAGTCACCTAGTGCAG” the binding signal was 9370 fluorescence intensity (a.u.).
“ATGGCTCGGTGGTGCACTATTTTTTTTTTAACTTAATTTGCGGAGTCACCTAGTGCAG” was tested, and the binding signal was 12100 fluorescence intensity (a.u.).
“GCTGCTTTCCTTTCTTCTCTTCCAGTCAATCAAACGCGTCCGGAGTCACCTAGTGCAG” was tested, and the binding signal was 8800 fluorescence intensity (a.u.).
For “TGTTGGTGAATGGTAATTTTTTGGGTTGATATGTTGCTGACGGAGTCACCTAGTGCAG”, the binding signal was 9580 fluorescence intensity (a.u.).
For “GCATCCCGGTCCGCCGTCGCATCCGCCATCGTGCTGAGCACGGAGTCACCTAGTGCAG”, the binding signal was 8080 fluorescence intensity (a.u.).
With “GGTGATTGTGGTTATGCCAGTTTAAATATTCTCCACTGCTCGGAGTCACCTAGTGCAG” the binding signal was 8090 fluorescence intensity (a.u.).
For “CTTAACTCTGCCAAACATGCCCATAGTTAGCTTCATTATTCGGAGTCACCTAGTGCAG”, the binding signal was 8070 fluorescence intensity (a.u.).
With “ACCGACTTACACAATCTCTCCCACTGCCATGCGGGCCCACCGGAGTCACCTAGTGCAG” the binding signal was 9000 fluorescence intensity (a.u.).
In the case of “TTTTCTGTCCAAGTTGGCCGCTTTGGCAACTACTCCTTTCCGGAGTCACCTAGTGCAG”, the binding signal is reported as 8160 fluorescence intensity (a.u.).
